Measurements published in patent publication US12569484B2, “Use of phosphodiesterase 5 inhibitor in preparation of medicament for resisting fibrotic diseases” (SHENZHEN HANHUI PHARMACEUTICAL TECHNOLOGY CO., LTD., priority 2019, dated 2026).
At least one structure is not confirmed: it was looked up by name or label, or the drawing left a doubt.

Tests used:
[1] = system: idiopathic pulmonary fibrosis model rats; assay: Bleomycin-induced idiopathic pulmonary fibrosis model; type: in vivo, male SD rats; settings: IPF rats, BIBF 50 mg/kg, tadalafil 5 and 20 mg/kg, sildenafil 20 mg/kg
Description: 48 male SD rats were randomly divided into 6 groups according to their body weights, with 8 rats in each group: a sham operation group (Sham), a model group, a nintedanib-50 mg/kg group (BIBF-50 mg/kg), a tadalafil-5 mg/kg group, a tadalafil-20 mg/kg group, and a sildenafil-20 mg/kg group. All the operations involved in this experiment were implemented under the guiding principle of KCI animal experiment operation SOP. After the animals were purchased, they were fed adaptively for 3-7 days before modeling. After weighing, the animals were anesthetized with isoflurane inhalation. After it was confirmed that the animals were anesthetized, the neck was sterilized, the skin of the neck was cut open, a main trachea was exposed by blunt dissection of muscle, a small incision was made between tracheal rings, a PE-20 tube was inserted into a left main bronchus, bleomycin (dosage: 3 mg/kg, volume: 1.0 ml/kg) was directly injected, and the trachea and skin were sutured. […]

[2] = system: UUO renal fibrosis model mice; assay: UUO (unilateral ureteral obstruction) renal fibrosis model; type: in vivo, male C57BL/6 mice; settings: 7 days; for fibrosis area in the renal fibrosis lesions: vs UUO model group

CN1CC(=O)N2[C@H](c3ccc4c(c3)OCO4)c3[nH]c4ccccc4c3C[C@@H]2C1=O [tadalafil]
alveolar tissue structure in the pulmonary fibrosis lesion of the left lung (HE staining) ([1]; 14 days intragastric): the alveolar structure in the fibrosis lesion was preserved | alveolar tissue structure in the pulmonary fibrosis lesion of the left lung (Masson Trichrom staining) ([1]; 14 days intragastric): most of the alveolar structures in the fibrosis lesion were preserved | degree of pulmonary fibrosis in the left lung (Ashcroft score) ([1]; oral once a day 14 days, vs model group, p<0.05): significantly inhibit | expression levels of FN1, Collagen I, PAI-1 and α-SMA proteins in kidney tissues (Western Blot) ([2]; tadalafil 1, 3, 10 mg/kg/d intragastric, dose-dependent): significantly decreased | fibrosis area in the renal fibrosis lesions ([2]; tadalafil high-dosage (10 mg/kg)): significantly reduced | collagen fiber proliferation in the renal interstitium ([2]; tadalafil intragastric): reduced | expression level of the FN1 protein in kidney (immunohistochemistry) ([2]; tadalafil intragastric): significantly reduced | infiltration of inflammatory cells in the kidney (HE staining) ([2]; tadalafil intragastric): significantly reduced | fibrosis area in the renal fibrosis lesions ([2]; tadalafil medium-dosage (3 mg/kg)): significantly reduced
